PubChem BioAssay AID1259308 | NCATS – 2017
Purpose: 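Candidate targets for better recombinant protein yield in mammalian cells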 (primary screen). System: human HEK293 embryonic kidney cells stably expressing firefly luciferase (HEK-CMV-Luc2-Hygro). Reagents: single siRNA against human genes, 0.8 pmol siRNA per well. Timing: 72 h. Read-out: 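Reporter luminescence and viable-cell signal on separate replicate plates, given as percent of non-targeting control and median/MAD z-scores, plus per-cell luciferase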. Direction: total luciferase, z-score and total luciferase, % of control: higher = more reporter protein produced; luciferase per cell, z-score: higher = more reporter output per viable cell; viable cells, % of control: higher = more viable cells. Rule for the call: 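Active when the median/MAD z-score for overall luciferase is greater than 3; a gene was taken forward for validation with new siRNAs if at least two of its three siRNAs passed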. Calls: active = raised luciferase; inactive = no rise.
Here is one part, drawn at random, of about 59,000 deposited reagents. Over the whole deposit, about 1,510 (2.6%) are marked active. 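Calls use total luciferase alone and ignore viability, so some active siRNAs may act by altering cell number.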 Unmarked entries are inactive. The numbers tell different reagents against one gene apart.

| Target gene | siRNA no. | total luciferase, z-score | total luciferase, % of control | luciferase per cell, z-score | viable cells, % of control |
| --- | --- | --- | --- | --- | --- |
| ITGB3BP (integrin subunit beta 3 binding protein) | 1 | -1.42 | 53.6 | -0.903 | 76 |
| ITGB3BP (integrin subunit beta 3 binding protein) | 2 | -0.916 | 63.7 | 0.0122 | 70.9 |
| ITGB3BP (integrin subunit beta 3 binding protein) | 3 | 0.776 | 97.3 | 0.551 | 94.1 |
| TNFRSF14 (TNF receptor superfamily member 14) | 1 | 0.0862 | 83.6 | -0.557 | 108 |
| TNFRSF14 (TNF receptor superfamily member 14) | 2 | -1.34 | 55.3 | -1.59 | 93.9 |
| TNFRSF14 (TNF receptor superfamily member 14) | 3 | -0.078 | 80.3 | 0.27 | 83.6 |
| GXYLT1 (glucoside xylosyltransferase 1) | 1 | 0.863 | 99.1 | 0.386 | 100 |
| GXYLT1 (glucoside xylosyltransferase 1) | 2 | -0.233 | 77.3 | -0.146 | 89.7 |
| GXYLT1 (glucoside xylosyltransferase 1) | 3 | -0.862 | 64.7 | -1.51 | 108 |
| AGTR1 (angiotensin II receptor type 1) | 1 | 1.31 | 108 | 1.25 | 86.9 |
| AGTR1 (angiotensin II receptor type 1) | 2 | 1.04 | 103 | 0.106 | 111 |
| AGTR1 (angiotensin II receptor type 1) | 3 | -0.238 | 77.2 | -0.753 | 105 |
| GNRH2 (gonadotropin releasing hormone 2) | 1 | 1.12 | 104 | 1.26 | 83.5 |
| GNRH2 (gonadotropin releasing hormone 2) | 2 | 0.547 | 92.8 | 0.48 | 91.4 |
| GNRH2 (gonadotropin releasing hormone 2) | 3 | 1.87 | 119 | 1.71 | 84.9 |
| RBM38 (RNA binding motif protein 38) | 1 | -1.35 | 55.1 | -0.904 | 78.1 |
| RBM38 (RNA binding motif protein 38) | 2 | -2.79 | 26.4 | -4.09 | 86.7 |
| RBM38 (RNA binding motif protein 38) | 3 | -0.0105 | 81.7 | 0.00693 | 91.1 |
| ZBTB9 (zinc finger and BTB domain containing 9) | 1 | -0.00883 | 81.7 | -0.105 | 93.9 |
| ZBTB9 (zinc finger and BTB domain containing 9) | 2 | -0.323 | 75.5 | -0.506 | 96.4 |
| ZBTB9 (zinc finger and BTB domain containing 9) | 3 | -0.00477 | 81.8 | -0.226 | 97 |
| H2BC17 (H2B clustered histone 17) | 1 | 0.749 | 96.8 | 0.632 | 91.6 |
| H2BC17 (H2B clustered histone 17) | 2 | 0.00911 | 82.1 | -0.579 | 107 |
| H2BC17 (H2B clustered histone 17) | 3 | -1.03 | 61.5 | -1.78 | 110 |
| OSBPL10 (oxysterol binding protein like 10) | 1 | -2.01 | 42 | -0.205 | 49.5 |
| OSBPL10 (oxysterol binding protein like 10) | 2 | 0.187 | 85.6 | 0.101 | 93.1 |
| OSBPL10 (oxysterol binding protein like 10) | 3 | -0.557 | 70.8 | -0.00251 | 79.2 |
| TLR10 (toll like receptor 10) | 1 | 1.45 | 111 | 0.63 | 105 |
| TLR10 (toll like receptor 10) | 2 | -0.383 | 74.3 | -0.515 | 95 |
| TLR10 (toll like receptor 10) | 3 | -0.683 | 68.3 | -0.801 | 94.3 |
| PFKM (phosphofructokinase, muscle) | 1 | -1.88 | 44.4 | -1.23 | 68.7 |
| PFKM (phosphofructokinase, muscle) | 2 | -0.505 | 71.8 | -0.303 | 87 |
| PFKM (phosphofructokinase, muscle) | 3 | -0.738 | 67.2 | -0.854 | 94 |
| ZNF317 (zinc finger protein 317) | 1 | -1.96 | 42.8 | -0.887 | 60.5 |
| ZNF317 (zinc finger protein 317) | 2 | -0.0754 | 80.4 | 0.27 | 83.7 |
| ZNF317 (zinc finger protein 317) | 3 | 2.15 | 125 | 2.39 | 74.3 |
| BRINP1 (BMP/retinoic acid inducible neural specific 1) | 1 | 1.82 | 118 | 1.91 | 79.9 |
| BRINP1 (BMP/retinoic acid inducible neural specific 1) | 2 | -0.706 | 67.9 | -0.0559 | 76.9 |
| BRINP1 (BMP/retinoic acid inducible neural specific 1) | 3 | 0.221 | 86.3 | 0.991 | 74.3 |

5 of these entries, reformatted:
{"Target gene": "ITGB3BP (integrin subunit beta 3 binding protein)", "siRNA no.": 1, "total luciferase, z-score": -1.42, "total luciferase, % of control": 53.6, "luciferase per cell, z-score": -0.903, "viable cells, % of control": 76}
{"Target gene": "ITGB3BP (integrin subunit beta 3 binding protein)", "siRNA no.": 2, "total luciferase, z-score": -0.916, "total luciferase, % of control": 63.7, "luciferase per cell, z-score": 0.0122, "viable cells, % of control": 70.9}
{"Target gene": "ITGB3BP (integrin subunit beta 3 binding protein)", "siRNA no.": 3, "total luciferase, z-score": 0.776, "total luciferase, % of control": 97.3, "luciferase per cell, z-score": 0.551, "viable cells, % of control": 94.1}
{"Target gene": "TNFRSF14 (TNF receptor superfamily member 14)", "siRNA no.": 1, "total luciferase, z-score": 0.0862, "total luciferase, % of control": 83.6, "luciferase per cell, z-score": -0.557, "viable cells, % of control": 108}
{"Target gene": "TNFRSF14 (TNF receptor superfamily member 14)", "siRNA no.": 2, "total luciferase, z-score": -1.34, "total luciferase, % of control": 55.3, "luciferase per cell, z-score": -1.59, "viable cells, % of control": 93.9}
